Data from PMC10897170.
These are yes or no findings as the source states them, for the method shown. Binding seen in cells or lysates may run through a third protein. Some entries that bind do so weakly or less than the wild type. For part of these data: Sequences can lack the tags named with a protein.

Amino acid sequences for entries named in this document (tags omitted).
UniProt Q61656: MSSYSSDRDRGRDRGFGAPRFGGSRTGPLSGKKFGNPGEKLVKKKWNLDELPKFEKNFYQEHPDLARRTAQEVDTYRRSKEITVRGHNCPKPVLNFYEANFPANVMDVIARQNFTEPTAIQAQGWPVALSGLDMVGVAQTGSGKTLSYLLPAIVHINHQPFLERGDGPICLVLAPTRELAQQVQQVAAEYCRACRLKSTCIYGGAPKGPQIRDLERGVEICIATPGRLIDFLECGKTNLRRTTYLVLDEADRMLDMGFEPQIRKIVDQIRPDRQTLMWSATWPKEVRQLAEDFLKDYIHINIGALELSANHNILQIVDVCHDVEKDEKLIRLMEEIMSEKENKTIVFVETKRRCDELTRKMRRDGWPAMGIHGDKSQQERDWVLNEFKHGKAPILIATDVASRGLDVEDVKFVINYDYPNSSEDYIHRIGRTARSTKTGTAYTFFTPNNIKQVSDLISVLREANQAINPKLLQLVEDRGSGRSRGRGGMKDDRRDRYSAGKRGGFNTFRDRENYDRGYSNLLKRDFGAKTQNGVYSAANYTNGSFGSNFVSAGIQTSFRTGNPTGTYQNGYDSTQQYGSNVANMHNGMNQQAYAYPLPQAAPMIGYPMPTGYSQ
UniProt Q8C3P7: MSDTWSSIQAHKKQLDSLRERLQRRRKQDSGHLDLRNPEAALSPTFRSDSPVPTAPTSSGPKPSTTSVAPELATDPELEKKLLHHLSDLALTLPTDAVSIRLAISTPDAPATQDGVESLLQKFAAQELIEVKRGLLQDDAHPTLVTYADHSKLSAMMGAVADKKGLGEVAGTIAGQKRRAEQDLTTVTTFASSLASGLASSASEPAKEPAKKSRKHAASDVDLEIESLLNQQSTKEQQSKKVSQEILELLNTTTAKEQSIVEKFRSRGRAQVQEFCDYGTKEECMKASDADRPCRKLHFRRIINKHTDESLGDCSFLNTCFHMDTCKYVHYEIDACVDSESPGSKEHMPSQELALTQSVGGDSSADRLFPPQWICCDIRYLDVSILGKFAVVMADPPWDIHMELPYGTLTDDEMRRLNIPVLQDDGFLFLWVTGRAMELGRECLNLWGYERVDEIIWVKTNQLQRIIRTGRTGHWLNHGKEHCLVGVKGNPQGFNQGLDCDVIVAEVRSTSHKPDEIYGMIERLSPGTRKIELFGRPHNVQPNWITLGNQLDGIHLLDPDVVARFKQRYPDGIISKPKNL
UniProt Q9DBY1: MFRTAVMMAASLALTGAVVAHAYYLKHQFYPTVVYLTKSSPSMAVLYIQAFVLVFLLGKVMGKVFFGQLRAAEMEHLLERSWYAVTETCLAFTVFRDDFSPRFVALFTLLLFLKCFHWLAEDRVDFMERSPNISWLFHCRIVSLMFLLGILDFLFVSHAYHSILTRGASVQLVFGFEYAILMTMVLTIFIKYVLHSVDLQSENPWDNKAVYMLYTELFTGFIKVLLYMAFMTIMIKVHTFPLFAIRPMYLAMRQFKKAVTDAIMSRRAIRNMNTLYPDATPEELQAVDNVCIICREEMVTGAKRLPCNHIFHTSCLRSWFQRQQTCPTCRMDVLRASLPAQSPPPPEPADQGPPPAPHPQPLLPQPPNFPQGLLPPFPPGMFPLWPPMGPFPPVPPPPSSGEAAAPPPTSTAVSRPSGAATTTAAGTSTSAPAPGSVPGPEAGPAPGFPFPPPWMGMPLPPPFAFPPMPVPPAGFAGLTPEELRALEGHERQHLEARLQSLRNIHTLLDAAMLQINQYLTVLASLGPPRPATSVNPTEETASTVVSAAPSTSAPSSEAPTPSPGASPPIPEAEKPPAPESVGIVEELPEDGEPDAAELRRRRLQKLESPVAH

Experiments:
Flag-DDX5 (mouse) = Flag-DDX5 (mouse) (UniProt Q61656); test: co-IP; 293T cells co-transfected with Flag-DDX5, HA-METTL14 and/or Myc-METTL3 (third plasmid at 2.5, 5.0 and 10.0 µg or control vector); lysate precipitated with an antibody on protein G/A magnetic beads; western blot
HA-METTL14 (mouse) = target: T1, HA-METTL14 (mouse) (UniProt Q3UIK4); test: as above
T1 sequence: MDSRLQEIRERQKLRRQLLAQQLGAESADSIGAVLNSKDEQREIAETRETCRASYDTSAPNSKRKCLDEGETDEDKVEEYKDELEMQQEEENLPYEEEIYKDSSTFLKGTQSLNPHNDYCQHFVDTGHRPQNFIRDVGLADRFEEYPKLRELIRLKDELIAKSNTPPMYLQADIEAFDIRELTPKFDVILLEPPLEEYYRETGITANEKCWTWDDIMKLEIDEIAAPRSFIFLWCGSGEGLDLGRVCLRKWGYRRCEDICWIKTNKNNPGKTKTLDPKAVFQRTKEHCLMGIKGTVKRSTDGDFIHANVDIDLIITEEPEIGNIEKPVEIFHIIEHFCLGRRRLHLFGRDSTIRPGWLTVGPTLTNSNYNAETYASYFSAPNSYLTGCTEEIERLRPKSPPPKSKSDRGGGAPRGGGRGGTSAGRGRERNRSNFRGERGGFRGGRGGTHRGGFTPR

[1] = target: DDX5 (endogenous, mouse cells) (mouse (endogenous in MEFs and mouse macrophages)) (UniProt Q61656); test: co-IP; endogenous proteins in MEF lysates; precipitated with anti-DDX5, anti-METTL3 or anti-METTL14 antibody on protein G/A magnetic beads; western blot; cells untreated or treated with LPS, FSL-1 or Pam3CSK4, with overexpression or siRNA knock-down of the third protein (DDX5, METTL3, METTL14), or with MyD88 or TRIF siRNA
[2] = target: DDX5 (endogenous, mouse cells) (mouse (endogenous in MEFs and mouse macrophages)) (UniProt Q61656); test: co-IP; endogenous proteins in mouse macrophage (Mø) lysates; precipitated with an antibody on protein G/A magnetic beads; western blot; cells untreated or treated with LPS, FSL-1 or Pam3CSK4
[3] = target: METTL3 (endogenous, MEFs) (mouse (endogenous in MEFs)) (UniProt Q8C3P7); test: co-IP; endogenous proteins in MEF lysates; precipitated with anti-DDX5, anti-METTL3 or anti-METTL14 antibody on protein G/A magnetic beads; western blot; cells untreated or treated with LPS, FSL-1 or Pam3CSK4, with overexpression or siRNA knock-down of the third protein (DDX5, METTL3, METTL14), or with MyD88 or TRIF siRNA

Myc-METTL3 (from UniProt Q8C3P7 1-580) was tested, and the binding (Flag-DDX5 (mouse)) was “binds” and the binding (HA-METTL14 (mouse)) was “binds”.

For “METTL3 (endogenous, MEFs) (from UniProt Q8C3P7 1-580)”, the binding [1] was “binds”.

For “Hrd1 (endogenous, mouse cells) (from UniProt Q9DBY1 1-612)”, the binding [1] was “binds” and the binding [2] was “binds”.

B1: METTL14 (endogenous, mouse cells) (protein, UniProt Q3UIK4 1-456)
chain: T1 sequence
B1 was tested, and the binding [3] was “binds”.
